Results are given in words; binding and its absence hold for the method and conditions named. Binding seen in cells or lysates may run through a third protein. These calls come from enrichment with a bait or labelling near it, and not all partners need be listed. Sequences can lack the tags named with a protein. Values belong to the binder of their own block, whether it stands above or below them.
Target: T1, Slm9-3XFLAG (S. pombe) (UniProt O74309)
T1 sequence: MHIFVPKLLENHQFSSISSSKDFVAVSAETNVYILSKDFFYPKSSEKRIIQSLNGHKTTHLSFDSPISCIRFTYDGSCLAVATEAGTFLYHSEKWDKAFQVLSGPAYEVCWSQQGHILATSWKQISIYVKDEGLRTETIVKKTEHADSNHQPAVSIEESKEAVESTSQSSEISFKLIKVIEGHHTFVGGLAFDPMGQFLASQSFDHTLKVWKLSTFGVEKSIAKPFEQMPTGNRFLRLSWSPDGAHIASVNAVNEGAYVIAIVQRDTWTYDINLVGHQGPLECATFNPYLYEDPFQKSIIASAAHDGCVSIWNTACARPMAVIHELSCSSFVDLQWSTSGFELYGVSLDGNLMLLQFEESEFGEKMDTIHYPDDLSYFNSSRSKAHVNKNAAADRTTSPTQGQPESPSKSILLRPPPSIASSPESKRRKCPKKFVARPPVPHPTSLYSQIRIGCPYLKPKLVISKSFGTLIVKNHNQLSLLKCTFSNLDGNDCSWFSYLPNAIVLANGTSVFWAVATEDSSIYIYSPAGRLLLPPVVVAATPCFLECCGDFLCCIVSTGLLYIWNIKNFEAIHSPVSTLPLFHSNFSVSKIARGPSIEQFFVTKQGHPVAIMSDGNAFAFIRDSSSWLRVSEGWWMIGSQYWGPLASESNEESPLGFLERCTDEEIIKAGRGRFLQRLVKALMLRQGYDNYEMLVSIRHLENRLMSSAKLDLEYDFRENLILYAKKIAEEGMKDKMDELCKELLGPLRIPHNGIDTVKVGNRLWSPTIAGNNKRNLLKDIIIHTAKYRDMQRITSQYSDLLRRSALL
Test: affinity purification with mass spectrometry; extracts from 5 g of cells expressing Slm9-FLAG, Dynabeads coupled to anti-FLAG M2 antibody for 15 mins, Benzonase treatment, on-bead tryptic digestion, LC-MS/MS; listed proteins found in at least two independent purifications and absent from four control purifications from untagged cells

B3: Vrs2, valine-tRNA ligase (protein, UniProt O75005 1-980)
chain: MADKGCEAAQSKDSSAPGSGEPRPKTEKELERERQKAAKLEKYHAKLAAKKAKEEARKPKLDKKAKIASPVAEYVEKTTPGEKKVLQDLDSPALKSYNPKAVESAWYDWWVKSGFFEPEFGPDGKPKKEGVFVITSPPPNVTGALHIGHALTIAIQDSLARWNRMLGKTVLFLGGFDHAGLSTQSVVEKKLWYTQKKTRHDYPRDKFVDIVWEWKEEYHNRIKNQMSRLGGSFDWTREAFTMDENLSRAVVETFVRLHEENIIYRANRLVNWCTALQTTLSNLEVENVDVPGRTLLKVPGYDEPVEVGVLTSIAYAVEGSDERIVIATTRPETLLGDTAVAVHPQDPRYKHLHGKFVKHPFCNRSIPIICDDIIVDMEFGTGAVKITPAHDPNDYEVGKRHNLEFINIFTDDGLLNENCGEFAGMKRFTARVKVVERLKELGLFVGTKENPMVIPLCGKTSDIIEPVMKPQWWVNQKEMAAAAAEVVKSGEIEIAPDMSRREFIRWMENIQDWCISRQLWWGHRIPAYFVNLADEPSQDRSEGRYWVTGRTLEQAEEKAKAAFPGKSFTLEQDEDVLDTWFSSGLWPFSTLGWPKDTSDYENFYPTTLMETGWDILFFWIARMVMLGLKLTGKIPFKRVFCHALVRDAQGRKMSKSLGNVVDPIDVIEGISLQALHDKLLVGNLDSREVEKAKKGQRLSYPKGIPQCGTDALRFTLCSLTTGGRDLNLDILRVEGYRKFCNKLYNATKFALGRLGSNFVPNKTADLTGNESLVEKWIFHRLNIAAAAMNKNMEEMNFLQATSAVHQFWLYELCDVYIENSKYLLSDGTEVQQESAKQTLYTVLDNALRLMHPFMPYVTEEMWQRLPRRPGDKTQTIVKAAFPVERVDYSNEIAAKYYESIITVVHSTRSMMAENGIKSDAVVYIHPDEEHSKLITSESASIQSLIKKCKTLSIVDNTFDSDKCVKNEVLEGSTIFLERNN
- binding: binds

B4: Tef3, translation elongation factor (protein, UniProt O94489 1-1047)
chain: MSAKSENKQSVKALEELLKHLTVCDAAEEADAAKALASFVNGPIEEQDAPSQVFSAISKQLNDKNATARERVLKGLEAVANHGSVAADVEPYLVELLPAVIAKVADKQNAVRDAAIAASKAIVRCTTPYAVKAIVPSVLESIHTTGKWNEKMNSLQLLDVLVEVAPSQLSYSLPQIIPVVSESMWDTKAEVKKQSKETMTKVCTLIANADIDRFIPELINCIAHPEEVPETIHSLGATTFVTEVQAPTLSIMVPLLARGLNERSTPIKRKTAVIIDNMSKLVEDPQVVAPFLPKLLPGLYHIKDTIGDPECRSVVQRAITTLERVGNVVDGKIPEVSTAANPEVCLETLKAVLGEIKVPTNEEVIAKYVANIAAQLVEEKDNENESWVLNITPYLTAFIDEAHIHKIVEQLRTRSIAKIPGGASHAEEEEEGEDLCNCEFSLAYGAKILLNRTRLRLKRGRRYGLCGPNGSGKSTLMRAIVNGQVEGFPTHLRTVYVEHDIDESEADTPSVDFILQDPAVPIKDRDEIVKALKENSFTDELINMPIGSLSGGWKMKLALTRAMFKNPDILLLDEPTNHLDVVNVAWLENFLVNQKDVSSIIVSHDSGFLDHVVQAIIHYERFKLRKYLGNMSEFVKKVPSAKSYYELGASEMEFKFPEPGFLEGVKTKQRAIIKVQHMSFQYPGTSKPQLNDISFQVSLSSRIAVIGPNGAGKSTLIKVLTGELLPTVGEIYQHENCRIAYVAQAAFTHLGHHPDKTPSEYIQWRFQSGEDLEAMDKASRVISEADEEAMKNKIFKIEGTQRKILGIHSRRKLKNSYEYECSFLVGENIGMKSERWVPMMSSDNAWLPRGELMETHAKMVAEVDRAEALKSGQFRPLVRKEIEEHCSLLGLDAELVSHSRIKGLSGGQKVKLVLAACTWLRPHVIVLDEPTNYLDRDSLGALSKGLKNFGGGVVLVTHSREFTEGLTEEVWAVNNGHMTPSGHNWVSGQGSGPRIQEKEEGDTFDAFGNKIEKAKKAKKLTGAELRKKKKERMARRKAGLEVSDDEL
- binding: binds

B6: Mts4, 19S proteasome regulatory subunit (protein, UniProt P87048 1-891)
chain: MSSKDISSKSPSGNDALNDKKGTKTSETNDRNSTNNTKERDELEDLSEEDLQLKNDLELLVQAVQDATPELVGSSLTQLKEIIRTSTSSMTAVPKPLKFLRPHYFTLVKIYDSWPQSPQKTQLADILSVLGMSYSNTSKHESLKYRLQGVTTDPSLWGHEYVRHLASEIEEEFASRQEEEAPTDDLMELALTIVPFFLTHNAEADAIDLLQELGAIEKVVPFVELDNASRVCLYITSCVNLLPFPEDVAMLRTAHAIYRKFDQLTQALNVAIRLDDMSLIKEDCEAATDPLLKKQMSYMLARQQIPMDMGDEELNDALNNTHLSDHFHYLGKELNLMDPKVPEDIFKTHLEVARTGLGASGVYSAKQNLANTFVNALVNAGYSNDRLILVDDEKTSWIYKNKESGLISATASIGLLQLWNVDMGLSLLDKYLYSSEENTKAGALLGIGVTNVAVRNEADPAMAILSEYLETGSVKLRASAILGLGLAYSGANREDLLDMLSPIVTDTDCPMQLSCLAALSLGLIFVGTCNGDVASTILQTLMEREESAQNDQWGRFMALGLALLFNGKQDLADATVETLKAIEGKIARQAEILVDICSYAGTGNVLHIQKLLHICSEPPSDDAKESETTIQTFAALGVATIAMGEDIGAEMVLRHFDHMMHYGEPSIRKAIPLALGLLSASNPQMRIFDTLSRYSHDNDLDVAYNAIFAMGLVGAGTSNARLAQLLRQLASYYHKESNALFMVRIAQGLLYLGKGTMTLNPYHTERQILGQTAFAGLMTVVLAMLDANTFVLDTSHWLLYAITLAIRPRMLITLGEDGQYLPVSVRVGQAVDVVGQAGRPKVITGWVTHTTPVLLHHNERAELATEAYTPLTSLEGIVILKKNTEDIEMTA
- binding: binds

B7: Fba1, fructose-bisphosphate aldolase (protein, UniProt P36580 1-358)
chain: MGILDIVPTGVITGDNVLKLFTYAREHGFAIPAINVTSSSTAIAALEAAREARSPIILQTSNGGAHFFAGKESSNEGQKASIAGSIAAAHYIRSIAPFFGVPVVMHSDHCAKKLLPWMDGMFEADEAYFKIHGEPLFSSHMLDLSEEPKKENIAQVKEYCKRAVPMKIWIEMEIGITGGEEDGVDNSHVSHTELYTQPEDIWDVYRELSSVTPYFSIAAAFGNVHGVYKPGNVKLQPALLGQHQAYVKEQLKTTNDKPVFFVFHGGSGSSVNEFRTGIKCGVVKVNIDTDTQFAYVEGVRDYVLKYKDYLMTPVGNPEGADKPNKKKFDPRVWIHEGEKTMTKRVLTALEDFYTVNTL
- binding: binds

More lines, now with the values ahead:

- binding: binds
B1: Atp2, F1-ATPase beta subunit (protein, UniProt P22068 45-525)
chain: ASTEAAKHNKGSIKQVIGAVVDCQFEDADSLPSILNALEVKLPDNKRLVLEVAQHVGENTVRTIAMDGTEGLVRGTAVIDTGSPISIPVGPGTLGRIMNVIGEPVDERGPIKAVKYSPIHADAPSFEEQSTTPEILETGIKVVDLLAPYARGGKIGLFGGAGVGKTVFIQELINNIAKAHGGYSVFTGVGERTREGNDLYREMQETGVIKLEGESKAALVFGQMNEPPGARARVALTGLTVAEYFRDIEGQDVLLFIDNIFRFTQAGSEVSALLGRIPSAVGYQPTLATDMGAMQERITTTKKGSITSVQAVYVPADDLTDPAPATTFAHLDATTVLSRSISELGIYPAVDPLDSKSRMMDPRILGEEHYNLAGSVQQMLQEYKSLQDIIAILGMDELSEADKLTVERARKVQRFLSQPFAVAEVFTGIEGRLVSLKDTIRSFKEILEGKHDSLPESAFYMVGSIDDAVKKAEKIAQELAA

- binding: binds
B2: Pss1, Hsp70 protein (protein, UniProt O59838 1-720)
chain: MSSRTNVVGIDFGNSKTVIAVARNRAIDVIVNEVSNRSTPSLVSYGERSRFLGEAAKSAEASNFRNTVGSLKRLAGRTYDDPEIKDIESNFISAKLTEVDGFVGAKVQYLNEETAFSNIQLIAAYFTKIKAIAEAELIGSVSDVVISIPAWFTDIQRRALLEAANIAGLNPLRLMNDNAAAALTYGITKTDLPEPESPRRVAIVDFGHSNYSVSIVEFSRGQFHIKSTVCDRNLGSRNMDKALIDYFAAEFKEKYKIDVLSNPKATFRLATAVERLKKVLSANANAPLNVEMIMNDIDASSFIKRSDFEELIKPLLERLTPPIEKALELAGIKKEDLYSIEMVGGCTRVPIVKEVIANYFGKGLSFTLNQDEAVARGCALSCAILSPVFRVREFHVHDVTTYPITFSWEPIPENPEEDSSLEVFSEGNPIPSTKILTFYRKAPFKLLAAYSKEAQLPGSIKQNIAQYLINDVVPNKDGDLSIVKIKVRLDLHGILVVEQAYIVEEQEVEEPVETSPEEEAEKKTDEPVKMRKVKKLVKVADLSVSVQEDRLPTEVLEKYREAEHQMIATDKLVAETVDRKNALEEYIYDTRAKLDDIYAPFTNEEESSKFKEMLTKAEDWLYEEGEDTTKAVYTAKLEDLMRVGGPIRQRYLDAEEAKRQKVQAEREAAKAATKSEAEKQKPSGKFEEGTGGRAPPPPPAEEVAPENEEVETMEIDEQKE

- binding: binds
B5: Ilv1, acetolactate synthase catalytic subunit (protein, UniProt P36620 141-669)
chain: AQAYSRVTKKPGVVLVTSGPGATNVITPIADALADGTPLVVFSGQVATSAIGSDAFQEADMVGISRSCTKWNVMVKDVADLPRRIDEAFEIATSGRPGPVLVDLPKDVTASVLKEPIPILSSVPSMNRRMKEVLEEGSKNVTAKIDRVANLLKLAKKPVIFCGHGVLANPECPTLLRKFSERLQIPVTTSLLGLGAVDERSDLSLHMLGMHGSGYANMAMQEADLILALGVRFDDRVTGNVSLFAPQARLAAAEERGGIIHFDISPKNIGKVVQPTEAIEGDVYESLKLLDSATKNIKIPSRFDWLSQIQTWKERFPFTFTRSAPGELVKPQEVIQELDKQTSDIKDKVTITTGVGAHQMWAATFYRWTKPSSLVTSGGLGTMGFGLPAAIGASVAAPKDIVIDIDGDASFSMTGMELATVRQFDIPVKILILNNEEQGMVTQWQNLFYEKRYSHTHQKNPNFVKLADAMGIKALRVEKREDLAKKMKEFLSTKGPVLMEVLVAQKEHVYPFVPGGKALHQFILHESLS
